No constants are given. Whether binding was seen depends on the method and setting. In cells and extracts the contact can be indirect. Tags and fused reporters may be left off the sequences shown.
Target: T1, Flag-p100 (3KR, K332/338/341R) (UniProt Q00653)
T1 sequence: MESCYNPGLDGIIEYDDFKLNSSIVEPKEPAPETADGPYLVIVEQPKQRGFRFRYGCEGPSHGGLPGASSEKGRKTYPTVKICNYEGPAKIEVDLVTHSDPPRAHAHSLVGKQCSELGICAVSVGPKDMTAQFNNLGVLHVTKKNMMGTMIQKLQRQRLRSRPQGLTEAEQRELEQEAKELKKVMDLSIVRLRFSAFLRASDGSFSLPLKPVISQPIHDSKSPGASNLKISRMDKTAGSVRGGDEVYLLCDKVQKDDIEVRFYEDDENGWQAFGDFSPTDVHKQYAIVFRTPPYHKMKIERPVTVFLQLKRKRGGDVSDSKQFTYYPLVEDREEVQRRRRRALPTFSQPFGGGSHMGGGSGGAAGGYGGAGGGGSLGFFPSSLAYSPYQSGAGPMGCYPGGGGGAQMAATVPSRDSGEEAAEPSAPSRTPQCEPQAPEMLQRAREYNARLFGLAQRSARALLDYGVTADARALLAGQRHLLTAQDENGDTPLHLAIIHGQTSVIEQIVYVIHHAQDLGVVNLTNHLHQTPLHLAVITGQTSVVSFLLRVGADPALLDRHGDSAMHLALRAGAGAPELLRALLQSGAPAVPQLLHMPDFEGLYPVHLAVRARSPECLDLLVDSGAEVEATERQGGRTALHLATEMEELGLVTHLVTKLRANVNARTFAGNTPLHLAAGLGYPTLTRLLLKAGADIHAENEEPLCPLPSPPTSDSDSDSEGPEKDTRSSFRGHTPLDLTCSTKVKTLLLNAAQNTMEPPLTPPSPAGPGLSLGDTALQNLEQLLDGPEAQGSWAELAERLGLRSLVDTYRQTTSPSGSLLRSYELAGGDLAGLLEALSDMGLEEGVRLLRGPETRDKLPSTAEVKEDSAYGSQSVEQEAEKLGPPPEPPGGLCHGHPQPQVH
Experiment: co-IP; extracts of HEK293T cells transfected with tagged constructs; in some panels treated with EBSS and Baf

binding: no binding
Substance: HA-p62 (from UniProt Q13501 1-440)

— publication PMC6947505
